Source: paper PMC4267844, “The Lifestyle Switch Protein Bd0108 of Bdellovibrio bacteriovorus Is an Intrinsically Disordered Protein” (PLoS ONE, 2014)

Amino acid sequences for entries named in this document (tags omitted). A change or cut given only in a name is not applied to a line headed by its entry.
UniProt Q6MRH5: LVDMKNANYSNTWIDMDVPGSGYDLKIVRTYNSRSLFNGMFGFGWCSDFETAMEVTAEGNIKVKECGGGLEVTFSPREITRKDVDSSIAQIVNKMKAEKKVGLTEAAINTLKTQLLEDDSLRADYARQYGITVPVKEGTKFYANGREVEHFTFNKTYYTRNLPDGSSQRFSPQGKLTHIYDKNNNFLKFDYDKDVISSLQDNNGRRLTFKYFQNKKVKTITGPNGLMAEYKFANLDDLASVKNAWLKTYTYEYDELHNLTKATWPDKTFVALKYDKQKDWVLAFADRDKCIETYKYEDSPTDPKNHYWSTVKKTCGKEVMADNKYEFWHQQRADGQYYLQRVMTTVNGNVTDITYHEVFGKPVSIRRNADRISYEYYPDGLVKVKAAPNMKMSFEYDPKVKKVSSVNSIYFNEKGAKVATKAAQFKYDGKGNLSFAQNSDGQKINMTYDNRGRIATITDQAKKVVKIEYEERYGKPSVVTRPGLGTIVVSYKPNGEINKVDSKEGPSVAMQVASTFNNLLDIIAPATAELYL

Molecular target: T1, Bd0108 (Bdellovibrio bacteriovorus HD100) (UniProt Q6MRH6)
T1 sequence (chain, disulfide between C56 and C59; 15N-labelled in the NMR titration): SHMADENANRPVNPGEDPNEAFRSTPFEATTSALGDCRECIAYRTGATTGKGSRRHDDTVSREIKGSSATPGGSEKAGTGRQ
Test: NMR titration; 1H-15N HSQC of 25 µM 15N Bd0108 with increasing Bd0109 up to 200 µM; 900 MHz; 20 mM Tris pH 7.0 100 mM NaCl 1 mM β-ME; both purified

binding: binds weakly
Substance: Bd0109 (from UniProt Q6MRH5)

These are yes or no findings as the source states them, for the method shown. A result given as binding can be weak or reduced; the word gives no strength.
